Measurements from the supplement of paper PMC12823440, “Inhibitors supercharge kinase turnover through native proteolytic circuits” (Nature, 2025).
The list shows a part of the results. The calls rarely recur for the same compound in another form.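 Kinases were expressed as nanoluciferase fusions in K562 cells and luminescence was read every 4 h between 2 and 18 h as percent of control, DMSO set to 100% and a positive control to 0%. A time point counts as decreased when the signal drops significantly (2 sigma). The hit call is the authors' own, does not follow from the count of time points alone, and its rule is not shown.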

Amino acid sequences for entries named in this document (tags omitted). A change or cut given only in a name is not applied to a line headed by its entry.
UniProt P50613: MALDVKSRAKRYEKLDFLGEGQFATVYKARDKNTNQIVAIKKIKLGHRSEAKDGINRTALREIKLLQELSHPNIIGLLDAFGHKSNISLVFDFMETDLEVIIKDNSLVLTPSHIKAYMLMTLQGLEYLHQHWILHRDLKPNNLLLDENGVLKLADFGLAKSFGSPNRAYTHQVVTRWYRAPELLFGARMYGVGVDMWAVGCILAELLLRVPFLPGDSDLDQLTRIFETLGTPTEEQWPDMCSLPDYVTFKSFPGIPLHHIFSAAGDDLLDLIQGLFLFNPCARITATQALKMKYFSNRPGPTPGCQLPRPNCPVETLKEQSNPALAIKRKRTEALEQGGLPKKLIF
UniProt P50750, whole entry: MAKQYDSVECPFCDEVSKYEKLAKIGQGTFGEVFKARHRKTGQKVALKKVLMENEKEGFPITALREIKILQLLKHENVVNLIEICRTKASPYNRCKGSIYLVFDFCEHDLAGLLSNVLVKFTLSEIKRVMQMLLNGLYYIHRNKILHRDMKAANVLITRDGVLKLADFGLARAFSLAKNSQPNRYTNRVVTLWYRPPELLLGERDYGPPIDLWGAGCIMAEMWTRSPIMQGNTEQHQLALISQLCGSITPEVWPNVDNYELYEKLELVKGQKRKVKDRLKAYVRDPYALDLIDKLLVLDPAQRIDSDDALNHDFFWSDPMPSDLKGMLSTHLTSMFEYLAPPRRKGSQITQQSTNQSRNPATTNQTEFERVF
UniProt O96017, whole entry: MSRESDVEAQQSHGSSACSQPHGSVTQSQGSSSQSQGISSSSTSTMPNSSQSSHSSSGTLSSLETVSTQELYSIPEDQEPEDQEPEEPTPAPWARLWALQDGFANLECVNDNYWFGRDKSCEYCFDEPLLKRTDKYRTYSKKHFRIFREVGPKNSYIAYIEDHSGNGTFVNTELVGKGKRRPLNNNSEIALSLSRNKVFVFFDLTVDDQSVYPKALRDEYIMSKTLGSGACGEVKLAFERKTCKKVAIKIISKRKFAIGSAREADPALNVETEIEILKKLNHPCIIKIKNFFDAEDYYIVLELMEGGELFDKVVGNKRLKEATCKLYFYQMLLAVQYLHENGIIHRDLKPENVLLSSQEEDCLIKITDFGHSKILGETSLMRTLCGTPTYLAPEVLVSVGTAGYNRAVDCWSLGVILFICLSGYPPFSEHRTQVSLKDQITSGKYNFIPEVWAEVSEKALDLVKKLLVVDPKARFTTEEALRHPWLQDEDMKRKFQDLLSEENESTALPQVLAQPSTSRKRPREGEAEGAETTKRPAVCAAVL
UniProt P07333, whole entry: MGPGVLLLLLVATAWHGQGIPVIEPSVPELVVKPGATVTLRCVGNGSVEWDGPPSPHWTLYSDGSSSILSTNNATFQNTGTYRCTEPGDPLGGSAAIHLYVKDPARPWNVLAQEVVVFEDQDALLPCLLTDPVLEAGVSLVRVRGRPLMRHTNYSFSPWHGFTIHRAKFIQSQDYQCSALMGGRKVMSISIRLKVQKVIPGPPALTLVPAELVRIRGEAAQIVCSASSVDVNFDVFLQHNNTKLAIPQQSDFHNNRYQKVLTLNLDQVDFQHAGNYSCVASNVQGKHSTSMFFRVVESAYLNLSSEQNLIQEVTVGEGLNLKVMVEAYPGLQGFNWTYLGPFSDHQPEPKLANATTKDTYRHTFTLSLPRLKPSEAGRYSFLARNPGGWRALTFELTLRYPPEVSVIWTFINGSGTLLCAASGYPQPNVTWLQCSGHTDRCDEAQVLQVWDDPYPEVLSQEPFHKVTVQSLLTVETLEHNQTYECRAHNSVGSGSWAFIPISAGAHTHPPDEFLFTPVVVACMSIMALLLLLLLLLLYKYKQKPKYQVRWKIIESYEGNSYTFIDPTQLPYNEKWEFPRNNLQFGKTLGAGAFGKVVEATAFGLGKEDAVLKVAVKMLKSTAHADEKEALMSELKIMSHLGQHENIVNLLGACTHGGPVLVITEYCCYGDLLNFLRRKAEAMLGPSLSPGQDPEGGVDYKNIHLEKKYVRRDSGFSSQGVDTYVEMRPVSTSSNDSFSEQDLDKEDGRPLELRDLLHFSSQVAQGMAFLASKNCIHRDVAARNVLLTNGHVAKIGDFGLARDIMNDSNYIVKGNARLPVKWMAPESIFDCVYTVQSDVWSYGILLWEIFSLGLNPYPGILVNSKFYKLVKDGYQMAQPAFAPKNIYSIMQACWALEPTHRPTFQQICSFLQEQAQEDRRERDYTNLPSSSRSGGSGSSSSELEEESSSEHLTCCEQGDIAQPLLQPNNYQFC
UniProt P41240: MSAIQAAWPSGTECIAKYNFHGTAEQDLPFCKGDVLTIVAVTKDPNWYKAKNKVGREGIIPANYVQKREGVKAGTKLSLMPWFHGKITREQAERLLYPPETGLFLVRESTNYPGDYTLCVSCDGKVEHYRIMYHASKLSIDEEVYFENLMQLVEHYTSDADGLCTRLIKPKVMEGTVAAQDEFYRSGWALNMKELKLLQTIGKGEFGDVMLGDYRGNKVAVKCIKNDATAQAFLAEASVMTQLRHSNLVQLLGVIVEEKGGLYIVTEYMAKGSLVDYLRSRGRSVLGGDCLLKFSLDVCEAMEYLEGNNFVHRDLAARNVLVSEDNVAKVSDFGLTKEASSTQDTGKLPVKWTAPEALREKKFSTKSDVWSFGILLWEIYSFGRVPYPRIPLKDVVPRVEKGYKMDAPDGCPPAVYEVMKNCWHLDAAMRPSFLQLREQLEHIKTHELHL
UniProt P48729: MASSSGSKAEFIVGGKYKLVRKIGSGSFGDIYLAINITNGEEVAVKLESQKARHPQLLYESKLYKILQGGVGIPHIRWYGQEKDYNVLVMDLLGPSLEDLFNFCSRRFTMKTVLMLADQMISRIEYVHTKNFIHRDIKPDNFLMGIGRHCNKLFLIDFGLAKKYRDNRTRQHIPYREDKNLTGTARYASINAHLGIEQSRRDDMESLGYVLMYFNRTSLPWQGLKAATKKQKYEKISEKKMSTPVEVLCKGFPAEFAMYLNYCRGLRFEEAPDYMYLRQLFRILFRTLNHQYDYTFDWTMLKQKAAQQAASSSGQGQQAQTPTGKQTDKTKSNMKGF
UniProt P48730: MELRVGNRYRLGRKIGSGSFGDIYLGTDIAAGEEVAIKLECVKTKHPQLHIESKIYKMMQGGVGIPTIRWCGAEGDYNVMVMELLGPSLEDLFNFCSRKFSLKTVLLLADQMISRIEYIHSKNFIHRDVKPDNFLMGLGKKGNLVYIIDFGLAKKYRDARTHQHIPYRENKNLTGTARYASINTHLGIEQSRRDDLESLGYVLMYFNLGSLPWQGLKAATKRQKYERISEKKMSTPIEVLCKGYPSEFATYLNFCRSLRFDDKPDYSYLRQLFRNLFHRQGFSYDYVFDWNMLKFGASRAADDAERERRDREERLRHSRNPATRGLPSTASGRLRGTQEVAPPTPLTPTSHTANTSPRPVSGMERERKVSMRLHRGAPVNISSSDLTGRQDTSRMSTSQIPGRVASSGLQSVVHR
UniProt Q08345: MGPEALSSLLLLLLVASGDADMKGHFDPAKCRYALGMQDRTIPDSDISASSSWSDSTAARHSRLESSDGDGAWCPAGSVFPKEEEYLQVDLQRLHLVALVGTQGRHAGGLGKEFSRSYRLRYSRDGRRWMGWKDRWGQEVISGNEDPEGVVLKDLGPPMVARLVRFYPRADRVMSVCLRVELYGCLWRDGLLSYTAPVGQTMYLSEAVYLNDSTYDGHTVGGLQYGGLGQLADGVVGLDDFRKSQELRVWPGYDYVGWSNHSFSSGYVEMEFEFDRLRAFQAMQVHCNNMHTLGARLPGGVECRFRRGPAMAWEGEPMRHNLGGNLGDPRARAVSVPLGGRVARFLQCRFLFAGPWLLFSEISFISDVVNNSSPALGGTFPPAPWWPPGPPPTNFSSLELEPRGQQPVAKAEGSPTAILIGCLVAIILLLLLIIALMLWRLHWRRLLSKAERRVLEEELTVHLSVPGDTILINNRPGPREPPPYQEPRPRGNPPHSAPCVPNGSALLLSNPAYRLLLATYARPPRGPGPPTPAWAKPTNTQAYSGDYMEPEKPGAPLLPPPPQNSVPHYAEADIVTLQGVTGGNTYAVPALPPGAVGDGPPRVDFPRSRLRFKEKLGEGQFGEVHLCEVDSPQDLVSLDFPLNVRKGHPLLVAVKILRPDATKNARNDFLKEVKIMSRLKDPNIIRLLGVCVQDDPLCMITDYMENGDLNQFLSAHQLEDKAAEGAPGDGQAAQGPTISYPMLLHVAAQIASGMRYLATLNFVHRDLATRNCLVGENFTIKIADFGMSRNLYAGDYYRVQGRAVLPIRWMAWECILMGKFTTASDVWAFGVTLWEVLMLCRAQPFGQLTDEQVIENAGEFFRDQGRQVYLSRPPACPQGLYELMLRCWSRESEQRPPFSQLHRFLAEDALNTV
UniProt Q9Y463, whole entry, looked up: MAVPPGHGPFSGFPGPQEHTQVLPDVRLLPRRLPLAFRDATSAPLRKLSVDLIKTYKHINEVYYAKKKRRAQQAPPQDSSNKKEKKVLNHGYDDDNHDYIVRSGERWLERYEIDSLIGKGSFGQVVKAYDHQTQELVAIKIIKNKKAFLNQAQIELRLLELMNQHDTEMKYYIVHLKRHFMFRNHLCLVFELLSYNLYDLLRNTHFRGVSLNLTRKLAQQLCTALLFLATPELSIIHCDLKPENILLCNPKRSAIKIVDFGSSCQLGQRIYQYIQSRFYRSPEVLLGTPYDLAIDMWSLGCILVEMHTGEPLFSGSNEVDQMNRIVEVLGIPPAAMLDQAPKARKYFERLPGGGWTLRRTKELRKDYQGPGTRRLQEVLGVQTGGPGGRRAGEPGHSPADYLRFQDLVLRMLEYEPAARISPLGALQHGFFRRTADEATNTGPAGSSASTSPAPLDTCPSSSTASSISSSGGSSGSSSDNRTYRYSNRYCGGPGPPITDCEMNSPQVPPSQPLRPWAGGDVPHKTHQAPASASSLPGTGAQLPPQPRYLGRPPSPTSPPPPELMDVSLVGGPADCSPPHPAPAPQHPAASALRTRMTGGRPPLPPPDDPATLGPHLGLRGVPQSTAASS
UniProt Q92630: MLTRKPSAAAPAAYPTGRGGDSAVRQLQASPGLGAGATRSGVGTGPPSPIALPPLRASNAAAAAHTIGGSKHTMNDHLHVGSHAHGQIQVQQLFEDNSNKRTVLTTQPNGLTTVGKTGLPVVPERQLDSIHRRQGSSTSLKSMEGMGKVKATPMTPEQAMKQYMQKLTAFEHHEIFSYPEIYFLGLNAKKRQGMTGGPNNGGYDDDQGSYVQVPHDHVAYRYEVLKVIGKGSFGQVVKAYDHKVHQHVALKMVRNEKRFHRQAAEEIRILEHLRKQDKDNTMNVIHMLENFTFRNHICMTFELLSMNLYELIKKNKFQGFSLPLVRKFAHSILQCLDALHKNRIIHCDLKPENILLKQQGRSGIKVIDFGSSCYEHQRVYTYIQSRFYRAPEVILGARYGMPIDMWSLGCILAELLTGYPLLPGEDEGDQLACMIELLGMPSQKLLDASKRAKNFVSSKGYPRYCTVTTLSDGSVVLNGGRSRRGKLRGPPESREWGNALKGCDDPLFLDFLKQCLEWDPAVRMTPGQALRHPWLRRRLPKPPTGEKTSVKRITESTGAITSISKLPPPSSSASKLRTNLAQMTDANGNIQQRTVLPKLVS

Legend:
Test in all cases: kinase-Nluc reporter destabilization hit call (1 = scored as downregulated) (binary); higher = compound decreases kinase abundance
Settings in all cases: K562, 2-18 h
CDK7 = CDK7 (UniProt P50613)
CDK9 = CDK9 (UniProt P50750)
CHEK2 = CHEK2 (UniProt O96017)
CSF1R = CSF1R (UniProt P07333)
CSK = CSK (UniProt P41240)
CSNK1A1 = CSNK1A1 (UniProt P48729)
CSNK1D = CSNK1D (UniProt P48730)
DDR1 = DDR1 (UniProt Q08345)
DYRK1B = DYRK1B (UniProt Q9Y463)
DYRK2 = DYRK2 (UniProt Q92630)

Measured: kinase-Nluc reporter destabilization hit call

Cc1ccc2c(=O)c3cccc(CC(=O)O)c3oc2c1C [Vadimezan]
inactive: CDK7; 10 µM 0 | CDK9; 10 µM 0 | CHEK2; 10 µM 0 | CSF1R; 10 µM 0 | CSK; 10 µM 0 | CSNK1A1; 10 µM 0 | CSNK1D; 10 µM 0 | DDR1; 10 µM 0 | DYRK1B; 10 µM 0 | DYRK2; 10 µM 0

CCCOc1ccc(C=C2SC(=O)NC2=O)cc1
inactive: CDK7; 10 µM 0 | CDK9; 10 µM 0 | CHEK2; 10 µM 0 | CSF1R; 10 µM 0 | CSK; 10 µM 0 | CSNK1A1; 10 µM 0 | CSNK1D; 10 µM 0 | DDR1; 10 µM 0 | DYRK1B; 10 µM 0 | DYRK2; 10 µM 0

Nc1nc(Nc2ccc(S(N)(=O)=O)cc2)nn1C(=O)c1c(F)cccc1F
inactive: CDK7; 2.5 µM 0 | CDK9; 2.5 µM 0 | CHEK2; 2.5 µM 0 | CSF1R; 2.5 µM 0 | CSK; 2.5 µM 0 | CSNK1A1; 2.5 µM 0 | CSNK1D; 2.5 µM 0 | DDR1; 2.5 µM 0 | DYRK1B; 2.5 µM 0 | DYRK2; 2.5 µM 0

C=CC(=O)Nc1cc2c(Nc3ccc(F)c(Cl)c3)ncnc2cc1OCCCN1CCOCC1 [Canertinib]
inactive: CDK7; 10 µM 0 | CDK9; 10 µM 0 | CHEK2; 10 µM 0 | CSF1R; 10 µM 0 | CSK; 10 µM 0 | CSNK1A1; 10 µM 0 | CSNK1D; 10 µM 0 | DDR1; 10 µM 0 | DYRK1B; 10 µM 0 | DYRK2; 10 µM 0

2 neighbouring records from above, quoted:
Cc1ccc2c(=O)c3cccc(CC(=O)O)c3oc2c1C [Vadimezan]
inactive: CDK7; 10 µM 0 | CDK9; 10 µM 0 | CHEK2; 10 µM 0 | CSF1R; 10 µM 0 | CSK; 10 µM 0 | CSNK1A1; 10 µM 0 | CSNK1D; 10 µM 0 | DDR1; 10 µM 0 | DYRK1B; 10 µM 0 | DYRK2; 10 µM 0

CCCOc1ccc(C=C2SC(=O)NC2=O)cc1
inactive: CDK7; 10 µM 0 | CDK9; 10 µM 0 | CHEK2; 10 µM 0 | CSF1R; 10 µM 0 | CSK; 10 µM 0 | CSNK1A1; 10 µM 0 | CSNK1D; 10 µM 0 | DDR1; 10 µM 0 | DYRK1B; 10 µM 0 | DYRK2; 10 µM 0

(more compounds)

C=CC(=O)N1C[C@@H](Nc2ncnc3[nH]ccc23)CC[C@H]1C [(2R,5S)-Ritlecitinib]
inactive: CDK7; 10 µM 0 | CDK9; 10 µM 0 | CHEK2; 10 µM 0 | CSF1R; 10 µM 0 | CSK; 10 µM 0 | CSNK1A1; 10 µM 0 | CSNK1D; 10 µM 0 | DDR1; 10 µM 0 | DYRK1B; 10 µM 0 | DYRK2; 10 µM 0

CN1CCN(c2nc(C3=C(c4c[nH]c5ccccc45)C(=O)NC3=O)c3ccccc3n2)CC1 [Sotrastaurin]
inactive: CDK7; 2.5 µM 0 | CDK9; 2.5 µM 0 | CHEK2; 2.5 µM 0 | CSF1R; 2.5 µM 0 | CSK; 2.5 µM 0 | CSNK1A1; 2.5 µM 0 | CSNK1D; 2.5 µM 0 | DDR1; 2.5 µM 0 | DYRK1B; 2.5 µM 0 | DYRK2; 2.5 µM 0

COc1ccc(-c2cc(C(=O)NN=C(C)c3ccc(OC)c(OC)c3)[nH]n2)cc1
inactive: CDK7; 10 µM 0 | CDK9; 10 µM 0 | CHEK2; 10 µM 0 | CSK; 10 µM 0 | CSNK1A1; 10 µM 0 | CSNK1D; 10 µM 0 | DDR1; 10 µM 0 | DYRK1B; 10 µM 0 | DYRK2; 10 µM 0
active: CSF1R; 10 µM 1

N#CC(=Cc1cc(Cl)cc(Cl)c1)c1cccnc1
inactive: CDK7; 10 µM 0 | CDK9; 10 µM 0 | CHEK2; 10 µM 0 | CSF1R; 10 µM 0 | CSK; 10 µM 0 | CSNK1A1; 10 µM 0 | CSNK1D; 10 µM 0 | DDR1; 10 µM 0

COc1nccc(-c2c(-c3ccc(F)cc3)ncn2C2CCNCC2)n1
inactive: CDK7; 10 µM 0 | CDK9; 10 µM 0 | CHEK2; 10 µM 0 | CSF1R; 10 µM 0 | CSK; 10 µM 0 | CSNK1A1; 10 µM 0 | CSNK1D; 10 µM 0 | DDR1; 10 µM 0 | DYRK1B; 10 µM 0 | DYRK2; 10 µM 0

Cc1ccc(O)cc1Nc1ccnc(Nc2cccc(C(N)=O)c2)n1 [Lck inhibitor 2]
inactive: CDK7; 10 µM 0 | CDK9; 10 µM 0 | CHEK2; 10 µM 0 | CSF1R; 10 µM 0 | CSK; 10 µM 0 | CSNK1A1; 10 µM 0 | CSNK1D; 10 µM 0 | DDR1; 10 µM 0 | DYRK1B; 10 µM 0 | DYRK2; 10 µM 0

Nc1ncnc2c1c(-c1cnc3[nH]ccc3c1)nn2C1CCCC1
active: CDK9; 2.5 µM 1
inactive: CDK7; 2.5 µM 0 | CHEK2; 2.5 µM 0 | CSF1R; 2.5 µM 0 | CSK; 2.5 µM 0 | CSNK1A1; 2.5 µM 0 | CSNK1D; 2.5 µM 0 | DDR1; 2.5 µM 0 | DYRK1B; 2.5 µM 0 | DYRK2; 2.5 µM 0

CC[C@@H]1C(=O)N(C)c2cnc(Nc3ccc(C(=O)NC4CCN(C)CC4)cc3OC)nc2N1C1CCCC1
inactive: CDK7; 10 µM 0 | CDK9; 10 µM 0 | CHEK2; 10 µM 0 | CSF1R; 10 µM 0 | CSK; 10 µM 0 | CSNK1A1; 10 µM 0 | DDR1; 10 µM 0 | DYRK1B; 10 µM 0 | DYRK2; 10 µM 0

CCn1c(=O)c(-c2cc(NC(=O)Nc3ccccc3)c(F)cc2Br)cc2cnc(NC)cc21 [Ripretinib]
active: DYRK2; 10 µM 1
inactive: CDK7; 10 µM 0 | CDK9; 10 µM 0 | CHEK2; 10 µM 0 | CSF1R; 10 µM 0 | CSK; 10 µM 0 | CSNK1A1; 10 µM 0 | CSNK1D; 10 µM 0 | DDR1; 10 µM 0 | DYRK1B; 10 µM 0

C[C@@H]1O[C@@H](Oc2c(-c3ccc(O)c(O)c3)oc3cc(O)cc(O)c3c2=O)[C@H](O)[C@H](O)[C@H]1O [Quercitrin]
inactive: CDK7; 10 µM 0 | CDK9; 10 µM 0 | CHEK2; 10 µM 0 | CSF1R; 10 µM 0 | CSK; 10 µM 0 | CSNK1A1; 10 µM 0 | CSNK1D; 10 µM 0 | DDR1; 10 µM 0 | DYRK1B; 10 µM 0 | DYRK2; 10 µM 0

CCc1cc2c(cc1-c1cnn(CC(=O)N(C)C)c1)C(C)(C)c1[nH]c3cc(C#N)ccc3c1C2=O
inactive: CDK7; 2.5 µM 0 | CDK9; 2.5 µM 0 | CHEK2; 2.5 µM 0 | CSF1R; 2.5 µM 0 | CSK; 2.5 µM 0 | CSNK1A1; 2.5 µM 0 | CSNK1D; 2.5 µM 0 | DDR1; 2.5 µM 0 | DYRK1B; 2.5 µM 0 | DYRK2; 2.5 µM 0

O=C(Nc1cccc(Cl)c1)Nc1ncc(CCNc2ncnc3ccsc23)s1 [SNS-314 (mesylate)]
inactive: CDK7; 10 µM 0 | CDK9; 10 µM 0 | CHEK2; 10 µM 0 | CSK; 10 µM 0 | CSNK1A1; 10 µM 0 | CSNK1D; 10 µM 0 | DDR1; 10 µM 0 | DYRK1B; 10 µM 0 | DYRK2; 10 µM 0
